Assays:
Format in all cases: cell-based, Homo sapiens
[1] = test system: Glutathione S-transferase A1 (GSTA1_HUMAN); assay: LC–MS proteome analysis, GSTA1; conditions: SW620, 24 h, IC50 concentration; control 91232; Table S1
Description: (§1) Enzymes involved in oxidoreductive potential were analyzed in the cell lysates obtained after treatment cells with selected conjugates for 24 h. Cells were washed with phosphate-buffered saline (PBS) and harvested, then centrifuged at 1000× g for 10 min. Then, lysis buffer (containing protease inhibitor, 1% RIPA Lysis and Extraction Buffer (ThermoFisher)) and cold PBS were added, and samples were sonicated three times in ice bath. Next, the cell lysates were centrifuged at 14,000× g at 4 °C for 15 min, and then supernatants were stored at […] before use. Protein concentration was measured by the Bradford method.
(§2) Normalized protein concentrations (5 µg) from cell lysate were precipitated by ice cold (–20 °C) acetonitrile (ACN, Merck, in ratio 1:4). Then, samples were centrifuged (–9 °C, 30 min., 18,000× g), the supernatant was discarded and ACN excess was evaporated using a vacuum centrifuge (5 min., room temp.). Protein pellet was dissolved in 40 mM ammonium bicarbonate. An amount of 500 mM dithiothreitol (DTT, with final concentration 20 mM) and 1 M iodoacetamide (IAA, with final concentration 40 mM) were used for reduction and alkylation processes. After 16 h of incubation in 37 °C with Trypsin Gold (Promega), digested protein samples were diluted with 0.1% formic acid (ThermoFisher) and centrifuged (+2 °C, 30 min, 18,000× g).
LC–MS analysis was carried out with the use of nanoUHPLC (nanoElute, Bruker) coupled by CaptiveSpray (Bruker) to ESI-Q-TOF mass spectrometer (Compact, Bruker). Two-column separation method was used, i.e., pre-column (300 µm × 5 mm, C18 PepMap 100, 5 µm, 100Å, Thermo Scientific) and Aurora separation column with CSI fitting (75 µm × 250 mm, C18 1.6 µm) in gradient 2% B to 35% B in 90 min with the 300 nL/min flow rate. Mobile phases (A) 0.1% formic acid in water and (B) 0.1% formic acid in ACN were used.
(§3) Sample ionizations were performed at a gas flow of 3.0 L/min, temperature of 150 °C and voltage of the capillary at 1600 V. The quadrupole energy was fixed to 5.0 eV and collision chamber energy 7.0 eV, with an ion transfer time of 90 µs. The ions were analyzed in the positive polarity mode in the range 150–2200 m/z, with the acquisition frequency of the 1 Hz spectrum, as well as with the autoMS/MS system.
The collected spectra were analyzed and calibrated using DataAnalysis software (Bruker) and then identified in ProteinScape (Bruker) by the MASCOT server. Protein identification was conducted using the online SwissProt and NCBIprot databases, and their references and biological significance were identified using Reactome.org, String.org and KEGG.

[2] = test system: Glutathione reductase, mitochondrial (GSHR_HUMAN); assay: LC–MS proteome analysis, GSHR; conditions: PC3, 24 h, IC50 concentration; Table S1
Description: as §1, §2
LC–MS analysis was carried out with the use of nanoUHPLC (nanoElute, Bruker) coupled by CaptiveSpray (Bruker) to ESI-Q-TOF mass spectrometer (Compact, Bruker). […]
as §3
(§4) The collected spectra were analyzed and calibrated using DataAnalysis software (Bruker) and then identified in ProteinScape (Bruker) by the MASCOT server. […]

[3] = test system: Thioredoxin-dependent peroxide reductase, mitochondrial (PRDX3_HUMAN); assay: LC–MS proteome analysis, PRDX3; conditions: PC3, 24 h, IC50 concentration; Table S1
Description: as §1
Normalized protein concentrations (5 µg) from cell lysate were precipitated by ice cold (–20 °C) acetonitrile (ACN, Merck, in ratio 1:4). […]
as §3, §4

| Structure (SMILES) | Protein intensity, mean (GSTA1) [1] | Protein intensity, mean (GSHR) [2] | Protein intensity, mean (PRDX3) [3] |
| --- | --- | --- | --- |
| O=[N+]([O-])c1cc([N+]2=C(Nc3ccccc3Br)[S][Cu-2]23[S]C(Nc2ccccc2Br)=[N+]3c2ccc(Cl)c([N+](=O)[O-])c2)ccc1Cl [Compound 1, Copper (II) complex with 1-(2-bromophenyl)-3-(4-chloro-3-nitrophenyl)thiourea] | 45787 | – | – |
| O=[N+]([O-])c1cc([N+]2=C(Nc3ccc(Br)cc3)[S][Cu-2]23[S]C(Nc2ccc(Br)cc2)=[N+]3c2ccc(Cl)c([N+](=O)[O-])c2)ccc1Cl [Compound 3, Copper (II) complex with 1-(4-bromophenyl)-3-(4-chloro-3-nitrophenyl)thiourea] | 41221 | 93164 | – |
| O=[N+]([O-])c1cc([N+]2=C(Nc3ccccc3F)[S][Cu-2]23[S]C(Nc2ccccc2F)=[N+]3c2ccc(Cl)c([N+](=O)[O-])c2)ccc1Cl [Compound 7, Copper (II) complex with 1-(2-fluorophenyl)-3-(4-chloro-3-nitrophenyl)thiourea] | 33213 | 96786 | 94596 |
| O=[N+]([O-])c1cc([N+]2=C(Nc3ccc(I)cc3)[S][Cu-2]23[S]C(Nc2ccc(I)cc2)=[N+]3c2ccc(Cl)c([N+](=O)[O-])c2)ccc1Cl [Compound 8, Copper (II) complex with 1-(4-iodophenyl)-3-(4-chloro-3-nitrophenyl)thiourea] | 49567 | 108221 | 189285 |

Source: paper PMC8584173, “The Cytotoxic Effect of Copper (II) Complexes with Halogenated 1,3-Disubstituted Arylthioureas on Cancer and Bacterial Cells” (International Journal of Molecular Sciences, 2021)
